Test results published in PubChem BioAssay AID493014 (National Center for Advancing Translational Sciences (NCATS), 2011).
About 170 (0.05%) of roughly 340,000 compounds were called active. The shares of active, inactive and inconclusive entries below differ from those in the screen. The call rests on the fitted dose curve; in most records, active means well fitted inhibition curve with a large enough effect in the signal ratio, with a control signal flat (not every such curve was filed as active); inconclusive means small, poorly fitted or top-dose-only effect, or effect the other way, or a change in a side signal; inactive means flat fitted curve, though single readings scatter; the % refers to the signal ratio. A potency beside an inconclusive call is a rough fit, not a confirmed value.

test: qHTS Assay to Find Inhibitors of Chronic Active B-Cell Receptor Signaling; conditions: ABC-DLBCL IkBa-CBG/CBR reporter, luminescence ratio (green luciferase fused to IkBa over red control in TMD8 lymphoma cells), 4 h; activity change, negative = inhibition: at 46.1 µM (top of the series);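 on activity change, negative = inhibition: plate controls were basal doxycycline-induced cells for no effect and cells given 10 µM MG132 for full effect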
Summary of the method: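 Concentration-response series (up to 46 uM) were applied to TMD8 dual-reporter cells for 4 h at 37C with doxycycline. Green/red ratio, after filter-overlap correction, defined %Activity; red signal alone was normalised to basal cells and zero luminescence.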
Potency means the concentration at half of the fitted maximal effect.

Row | SMILES | Potency | activity change, negative = inhibition
1 | CN(C)C(=O)CN1CCN(Cc2cn(C)nc2-c2ccc3c(c2)OCCO3)CC1 | inconclusive: 28.2 µM [falling, single point] | 
2 | CON(c1nc(Cl)nc(N(C)C)n1)S(=O)(=O)c1ccc(C)cc1 |  | inconclusive: -2.69%
3 | COc1cccc(NC(C)C(=O)Nc2cc([N+](=O)[O-])ccc2Cl)c1 (centres undefined) | inconclusive: 0.355 µM [falling, full curve, poor fit] | 
4 | COc1cc(NC(=O)c2cc3nc(C)cc(C)n3n2)c(OC)cc1Cl |  | inconclusive: -6.98%
5 | CCn1c(CCNC(=O)c2ccc(C)cc2)n[nH]c1=S |  | inactive: 4.09%
6 | CC(=O)Oc1ccc(C(=O)[C@H]2[C@H]3C(=O)N(c4ccc(C)cc4C)C(=O)[C@H]3[C@@H]3C=CC=NN32)cc1 |  | inconclusive: 0.345%
7 | CC(C)NC(=O)/C(C#N)=C\c1ccc(N(C)C)o1 |  | inconclusive: -4.78%
8 | COc1ccc(C(=O)CCS(=O)(=O)c2ccc(F)cc2)cc1OC |  | inactive: 4.7%
9 | COc1ccc(C(=O)/C=C/c2cc(C(=O)O)cc3c2OCOC3)c(O)c1 |  | inconclusive: -4.73%
10 | COC(=O)[C@@H](NC(=O)O[C@@H]1C(=O)c2cc(Br)ccc2O[C@H]1c1cccc(OC)c1)C(C)C |  | inconclusive: -0.325%
11 | Cc1cc(C(=O)Nc2ccc(Br)cc2F)n(-c2ccccc2)n1 |  | inactive: 1.16%
12 | N/C(=N\OC(=O)Nc1ccc(Cl)c(Cl)c1)c1ncc(C(F)(F)F)cc1Cl |  | inconclusive: 2.21%
13 | CCN(CC)C(=O)c1sc2nc(-c3ccc(OC)cc3)cn2c1C |  | inconclusive: -0.758%
14 | COc1ccc(-c2csc3nc(-c4cccnc4)nc(N4CCC(C(N)=O)CC4)c23)cc1OC | inconclusive: 18.4 µM [falling, single point] | 
15 | Cc1ccc(NC(=O)CSCc2ccco2)cc1 |  | inconclusive: 7.57%
16 | O=c1oc2cc(O)ccc2cc1-c1nc2c(s1)CCc1ccccc1-2 | inconclusive: 11.6 µM [falling, partial curve, poor fit] | 
17 | COc1ccccc1NC(=O)COC(=O)CNC(=O)C1CCCCC1 |  | inconclusive: 4.65%
18 | Cc1c(Br)ccc(NC(=O)Cn2nc(-c3cccs3)ccc2=O)c1C |  | inactive: -11.4%
19 | NC1=NC[C@H](Cc2ccccc2)N1CCc1cccc(F)c1 |  | inactive: -1.77%
20 | O=C(CNCc1ccccc1)Nc1ccc(Cl)cc1 | inconclusive: 35.5 µM [falling, single point] | 
21 | CC1CN(CC(=O)Nc2cccc(C(=O)Nc3cccc(C(F)(F)F)c3)c2)CC(C)O1 (centres undefined) |  | inconclusive: 0.466%

From no. 2 as far as 17, as listed above:
Row | SMILES | Potency | activity change, negative = inhibition
2 | CON(c1nc(Cl)nc(N(C)C)n1)S(=O)(=O)c1ccc(C)cc1 |  | inconclusive: -2.69%
3 | COc1cccc(NC(C)C(=O)Nc2cc([N+](=O)[O-])ccc2Cl)c1 (centres undefined) | inconclusive: 0.355 µM [falling, full curve, poor fit] | 
4 | COc1cc(NC(=O)c2cc3nc(C)cc(C)n3n2)c(OC)cc1Cl |  | inconclusive: -6.98%
5 | CCn1c(CCNC(=O)c2ccc(C)cc2)n[nH]c1=S |  | inactive: 4.09%
6 | CC(=O)Oc1ccc(C(=O)[C@H]2[C@H]3C(=O)N(c4ccc(C)cc4C)C(=O)[C@H]3[C@@H]3C=CC=NN32)cc1 |  | inconclusive: 0.345%
7 | CC(C)NC(=O)/C(C#N)=C\c1ccc(N(C)C)o1 |  | inconclusive: -4.78%
8 | COc1ccc(C(=O)CCS(=O)(=O)c2ccc(F)cc2)cc1OC |  | inactive: 4.7%
9 | COc1ccc(C(=O)/C=C/c2cc(C(=O)O)cc3c2OCOC3)c(O)c1 |  | inconclusive: -4.73%
10 | COC(=O)[C@@H](NC(=O)O[C@@H]1C(=O)c2cc(Br)ccc2O[C@H]1c1cccc(OC)c1)C(C)C |  | inconclusive: -0.325%
11 | Cc1cc(C(=O)Nc2ccc(Br)cc2F)n(-c2ccccc2)n1 |  | inactive: 1.16%
12 | N/C(=N\OC(=O)Nc1ccc(Cl)c(Cl)c1)c1ncc(C(F)(F)F)cc1Cl |  | inconclusive: 2.21%
13 | CCN(CC)C(=O)c1sc2nc(-c3ccc(OC)cc3)cn2c1C |  | inconclusive: -0.758%
14 | COc1ccc(-c2csc3nc(-c4cccnc4)nc(N4CCC(C(N)=O)CC4)c23)cc1OC | inconclusive: 18.4 µM [falling, single point] | 
15 | Cc1ccc(NC(=O)CSCc2ccco2)cc1 |  | inconclusive: 7.57%
16 | O=c1oc2cc(O)ccc2cc1-c1nc2c(s1)CCc1ccccc1-2 | inconclusive: 11.6 µM [falling, partial curve, poor fit] | 
17 | COc1ccccc1NC(=O)COC(=O)CNC(=O)C1CCCCC1 |  | inconclusive: 4.65%

(more compounds)

Row | SMILES | Potency | activity change, negative = inhibition
22 | Cc1ccc2[nH]c3c(c2c1)SC(C)(C)CC3=O |  | inactive: 1.26%
23 | Cc1cccn2c(=O)c3cc(C(=O)NCCN4CCOCC4)n(C)c3nc12 |  | inconclusive: 0.273%
24 | Cc1ccc(NC(=O)C(=O)NCCN2CCN(C(=S)Nc3ccccc3)CC2)cc1 |  | inactive: -1.59%
25 | CCn1cnc2cc(NCc3ccc(Br)cc3)ccc21 |  | inactive: 3.78%
26 | O/N=C1\CCCc2ccc3ccccc3c21 | inconclusive: 0.355 µM [activator, full curve, poor fit] | 
27 | O=c1oc(-c2ccccc2)nc2ccsc12 | inconclusive: 4.61 µM [falling, partial curve] | 
28 | O=C(COc1ncnc2ccccc12)Nc1ccc(S(=O)(=O)N2CCOCC2)cc1 |  | inconclusive: -6.17%
29 | COc1ccc(CCN2CC34C=CC(O3)C(C(=O)NCc3ccccc3)C4C2=O)cc1OC (centres undefined) |  | inconclusive: 3.24%
30 | Cc1cccc(NC(=O)C2CCC(CNC(=O)[C@@H]3Cc4ccccc4CN3)CC2)c1 (some centres undefined) | inconclusive: 22.4 µM [falling, single point] | 
31 | Cc1cnc(C(=O)NCCc2ccc(Cl)cc2)cn1 |  | inconclusive: 5.05%
32 | COc1ccc(/C=N/NC(=O)C(=O)N2CCCCCC2)cc1[N+](=O)[O-] | inconclusive: 12.6 µM [falling, single point] | 
33 | Clc1cccc(-c2nc(-c3ccc(-c4nn[nH]n4)cc3)no2)c1 | inconclusive: 18.4 µM [falling, single point] | 
34 | O=C(CC(SCCO)c1ccc2c(c1)OCO2)c1ccco1 (centres undefined) |  | inconclusive: -20.2%
35 | CC1(C)CC(=O)C2=C(C1)OC(N)=C(C#N)C2c1ccoc1 (centres undefined) |  | inactive: -16.6%
36 | CN(C)CCCn1c2c(c(SCC(=O)Nc3cccc4ccccc34)nc1=O)CCCC2 |  | inconclusive: -18.5%
37 | CC(SC1=NCCS1)C(=O)Nc1nnc(-c2ccc(Cl)cc2)s1 (centres undefined) |  | inconclusive: 11%
38 | CC1CCCCN1CCNC(=O)c1ccc2c(c1)N(Cc1cccc(Cl)c1)C(=O)c1ccccc1S2=O (centres undefined) |  | inconclusive: -0.122%
39 | CC1CCc2c(sc3c2C2=NS(=O)(=O)CCN2C=N3)C1 (centres undefined) |  | inconclusive: 8.15%
40 | CCn1c(SCC(=O)c2cc(OC)ccc2OC)nc2c1c(=O)n(C)c(=O)n2C |  | inconclusive: 4.28%
41 | O=C(NCCc1cccs1)c1cccs1 | inconclusive: 20 µM [falling, partial curve] | 
42 | Cc1ccc(Nc2nc(C)cs2)cc1 | inconclusive: 35.5 µM [falling, single point] | 

Row | SMILES | Potency | activity change, negative = inhibition
43 | CC1(C)Cc2cccc(OCC(=O)Nc3cc(S(C)(=O)=O)ccc3Cl)c2O1 |  | inactive: 5.15%
44 | Cc1ccc(C)c(CN2CCC(CNC(=O)Nc3ccc(Br)cc3F)CC2)c1 |  | inactive: 0.691%
45 | CCN(CC)c1ccc(/C=N/NC(=O)CCC(=O)NCc2ccccc2)c(O)c1 |  | inconclusive: -0.889%
46 | Cn1ccc2cc3c(cc21)CCN3C(=O)Nc1cccnc1 |  | inactive: 7.14%
47 | Nc1nnc(CC(=O)N/N=C/c2ccc(-c3ccc(F)cc3)o2)s1 |  | inactive: 11.6%
48 | OCCC1CN(CC#Cc2ccccc2)CCN1C1CCCC1 (centres undefined) |  | inactive: 8.08%
49 | Cc1cccc(-n2c(C)cc(/C=N/NC(=O)c3cccc([N+](=O)[O-])c3C)c2C)c1 |  | inactive: 0.969%
50 | CCOc1cc(/C=N/NC(=O)c2ccccc2-n2cccc2)ccc1O | inconclusive: 16.4 µM [falling, partial curve] | 
51 | CCSc1nnc(NC(=O)c2cc(OC)c(OC)c(OC)c2)s1 | inconclusive: 12.6 µM [falling, partial curve, poor fit] | 
52 | c1ccc(-c2noc(-c3ccc4c(c3)OCO4)n2)nc1 | inconclusive: 13 µM [falling, partial curve] | 
53 | CC(=O)Nc1ccc(C(=O)CCl)cc1 |  | inconclusive: -1.98%
54 | CN(c1ccccc1)c1ccc(/C=N/NC(=O)CC#N)cc1 |  | inconclusive: 4.99%
55 | Cc1ccc(NC(=O)c2c(F)cccc2Cl)cc1NS(C)(=O)=O |  | inactive: -3.02%
56 | COc1cccc(/C=C2\Oc3cc(OCC(=O)N4Cc5ccccc5C[C@H]4C(=O)O)ccc3C2=O)c1 |  | inconclusive: -11.8%
57 | Cc1ccc(-c2cn3nc(-c4ccccc4)c(-c4ccccc4)nc3n2)cc1 |  | inactive: 7.66%
58 | CCS(=O)(=O)c1ncc(Cl)c(C(=O)Nc2ccc(C)cc2)n1 |  | inconclusive: 14.9%
59 | CCN(CC)c1ccc(-n2c(C)cc(C=O)c2C)cc1 |  | inconclusive: -0.109%
60 | COc1ccc(C2CC(c3cccs3)=NN2C(=O)CSC2=NCCS2)cc1 (centres undefined) | inconclusive: 35.5 µM [falling, single point] | 
61 | COc1cccc(/C=N/NC(=O)CNC(=O)c2ccco2)c1O |  | inactive: -2.79%
62 | CC(C)(C)OC(=O)NCCCCCNC(=O)c1[nH]cnc1C(=O)Nc1ccc(Cl)cc1 |  | inconclusive: 2.85%
63 | CCN(CC)C(=O)C(=O)c1cc(C)n(-c2ccc(F)cc2)c1C |  | inconclusive: -0.966%

Row | SMILES | Potency | activity change, negative = inhibition
64 | O=C(COc1ccc(Br)cc1)NNC(=S)NC(=O)c1ccccc1[N+](=O)[O-] |  | inconclusive: 9.53%
65 | Cc1[nH]n(-c2ccc([N+](=O)[O-])cc2)c(=O)c1C=NCC1CCCO1 (centres undefined) |  | inactive: -5.68%
66 | COc1cccc(/C=N/Nc2ncnc3c2ncn3Cc2ccccc2)c1O |  | inconclusive: -3.56%
67 | Cc1ccc(C)c2c1cc(C)c1nnc(SCC(=O)c3cccs3)n12 |  | inconclusive: 5.16%
68 | O=C(COC(=O)c1cccs1)Nc1nc(-c2ccccc2)cs1 |  | inactive: 11%
69 | CC(=O)N1N=C(c2ccncc2)CC1c1ccccc1O (centres undefined) |  | inactive: -0.95%
70 | O=C(Nc1cccc(OCC(=O)N2CCOCC2)c1)C1CCCCC1 | inconclusive: 7.31 µM [falling, partial curve, poor fit] | 
71 | CCOP(=O)(OCC)C(NC(=O)/C=C/c1ccc(OC)cc1)c1ccccc1 (centres undefined) |  | inactive: 0.217%
72 | COc1ccc(C(=O)Nc2cc(C(F)(F)F)ccc2-n2cnc3ccccc32)cc1 |  | inconclusive: -13.3%
73 | O=[N+]([O-])c1cc(Cl)cc2c1nc(NCCO)c1ccccc12 |  | inconclusive: 12.5%
74 | COc1cc(/C=C2\CCc3c2nc2ccccc2c3C(=O)O)cc(OC)c1OC |  | inactive: 4.12%
75 | O=C(Nc1ccc(F)cc1)N1CCC(c2nc3c(nnn3Cc3cccc(Cl)c3)c(=O)[nH]2)CC1 |  | inconclusive: 6.27%
76 | CCOc1cc(/C=C2\COc3ccccc3C2=O)cc(Br)c1OCC(=O)N(C)C |  | inconclusive: 24.8%
77 | N/C(=N\N=C\c1cccc([N+](=O)[O-])c1)c1nonc1N |  | inconclusive: 3.52%
78 | O=C(O)COCc1nc2ccccc2s1 |  | inconclusive: 1.88%
79 | C[C@H](CO)N1C[C@H](C)[C@@H](CN(C)S(=O)(=O)c2cccs2)Oc2ccc(NC(=O)Nc3ccc(C(F)(F)F)cc3)cc2C1=O |  | inactive: -0.157%
80 | Cc1c(CNCCC2=CCCCC2)c(C(=O)O)c(C)n1Cc1ccccc1 |  | inconclusive: 4.92%
81 | O=c1c2cn[nH]c2nc(SCc2cccc(Br)c2)n1-c1ccc(Cl)cc1 |  | inconclusive: 7.8%
82 | CCn1nc(C)cc1C(=O)Sc1ccc(C)cc1 |  | inactive: 2.98%
83 | COc1ccccc1COC(=O)N/C=C/c1ccco1 |  | inactive: -0.345%
84 | O=C(/C=C/c1ccncc1)c1cc(Cl)ccc1O |  | inconclusive: 13.6%
